The supplement of paper PMC6078165

System: MDAMB468
Assay: relative JC-1 red fluorescence (viability) vs pre-drug, coculture with fibroblast (fraction); higher = more viable cancer cells
Conditions: 0.1 µM
Protocol: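 JC-1 labelled TNBC cells cocultured 1:1 (1,500 cells each) with CellTrace Violet stained primary or stromal fibroblasts in 384-well plates in FluoroBrite medium, treated with one of 42 anticancer drugs at 0.1, 1, 10 or 100 uM. JC-1 red fluorescence (mitochondrial integrity in cancer cells only) was read by plate reader every 8 h for 72 h. Values are normalised to each well's pre-drug value. The stock of one drug was tenfold lower, so its dose labels may be too high.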

C#Cc1cccc(Nc2ncnc3cc(OCCOC)c(OCCOC)cc23)c1 [Erlotinib]
relative JC-1 red fluorescence
Conditions	8 h	16 h	24 h	32 h	40 h	48 h	56 h	64 h	72 h
coculture fibroblast: C12385	0.899 ± 0.014	0.828 ± 0.01	0.772 ± 0.0082	0.6998 ± 0.0029	0.653 ± 0.009	0.633 ± 0.01	0.601 ± 0.012	0.576 ± 0.0068	0.5649 ± 0.0019
coculture fibroblast: H6013	0.8838 ± 0.004	0.837 ± 0.0095	0.786 ± 0.021	0.783 ± 0.038	0.749 ± 0.047	0.76 ± 0.049	0.73 ± 0.058	0.709 ± 0.063	0.664 ± 0.052
coculture fibroblast: H6019	0.821 ± 0.0089	0.7833 ± 0.003	0.7363 ± 0.0034	0.66 ± 0.0084	0.614 ± 0.024	0.589 ± 0.023	0.545 ± 0.024	0.508 ± 0.016	0.482 ± 0.012
coculture fibroblast: H6076	0.91 ± 0.061	0.923 ± 0.046	0.938 ± 0.024	0.926 ± 0.019	0.855 ± 0.022	0.846 ± 0.03	0.797 ± 0.041	0.782 ± 0.044	0.82 ± 0.065
coculture fibroblast: H6231	0.8513 ± 0.0057	0.973 ± 0.025	0.882 ± 0.019	0.835 ± 0.011	0.78 ± 0.015	0.756 ± 0.015	0.702 ± 0.017	0.668 ± 0.013	0.6459 ± 0.0036
coculture fibroblast: HADF	0.896 ± 0.017	0.843 ± 0.021	0.782 ± 0.039	0.767 ± 0.042	0.712 ± 0.06	0.699 ± 0.066	0.662 ± 0.068	0.651 ± 0.071	0.623 ± 0.08
coculture fibroblast: HCFa	0.878 ± 0.018	0.833 ± 0.026	0.778 ± 0.016	0.753 ± 0.015	0.689 ± 0.024	0.678 ± 0.029	0.627 ± 0.015	0.593 ± 0.013	0.549 ± 0.0096
coculture fibroblast: HCPF	0.883 ± 0.021	0.966 ± 0.03	0.902 ± 0.027	0.862 ± 0.01	0.801 ± 0.019	0.765 ± 0.024	0.711 ± 0.013	0.699 ± 0.015	0.682 ± 0.016
coculture fibroblast: HHSteC	0.91305 ± 0.00074	0.859 ± 0.0022	0.8146 ± 0.0037	0.784 ± 0.027	0.738 ± 0.032	0.729 ± 0.039	0.669 ± 0.037	0.641 ± 0.04	0.588 ± 0.038
coculture fibroblast: HMF	0.8287 ± 0.00021	0.91 ± 0.022	0.887 ± 0.049	0.847 ± 0.022	0.788 ± 0.015	0.765 ± 0.0095	0.716 ± 0.0085	0.696 ± 0.026	0.679 ± 0.037
coculture fibroblast: HPFa	0.919 ± 0.037	0.849 ± 0.049	0.827 ± 0.066	0.789 ± 0.072	0.749 ± 0.076	0.744 ± 0.087	0.668 ± 0.081	0.637 ± 0.087	0.557 ± 0.072
coculture fibroblast: HUF	0.908 ± 0.014	0.845 ± 0.029	0.8149 ± 0.006	0.764 ± 0.017	0.711 ± 0.025	0.692 ± 0.031	0.658 ± 0.05	0.633 ± 0.058	0.609 ± 0.063
coculture fibroblast: Hs5	0.7681 ± 0.003	0.964 ± 0.034	0.911 ± 0.018	0.8807 ± 0.0051	0.811 ± 0.011	0.7863 ± 0.0059	0.755 ± 0.017	0.72 ± 0.021	0.746 ± 0.035
coculture fibroblast: Hs27A	0.882 ± 0.025	0.838 ± 0.04	0.786 ± 0.058	0.787 ± 0.063	0.713 ± 0.065	0.701 ± 0.068	0.66 ± 0.071	0.628 ± 0.082	0.593 ± 0.068
coculture fibroblast: Hs343T	0.889 ± 0.012	0.831 ± 0.17	0.893 ± 0.037	0.845 ± 0.033	0.785 ± 0.026	0.759 ± 0.023	0.707 ± 0.023	0.688 ± 0.021	0.665 ± 0.019
coculture fibroblast: WS1	0.892 ± 0.016	0.795 ± 0.022	0.747 ± 0.027	0.691 ± 0.025	0.64 ± 0.016	0.607 ± 0.017	0.588 ± 0.011	0.5642 ± 0.0041	0.561 ± 0.0088

± gives the standard deviation of the averaged measurements. Values are relative to the signal before dosing, not to a vehicle control; the signal also falls without drug.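 Labels refer to human fibroblasts, largely primary: uterine (C12385, HUF), lung (H6013), bone (Hs27A), adrenal (HADF), skin (WS1), plus mammary HMF and breast cancer-associated Hs343T. Cancer lines are basal-like or mesenchymal-like triple-negative breast cancer. The paper counts as hits responses shifting over 3x the replicate standard deviation. The tissue of the other fibroblasts is not given here.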
